# Source: PubChem BioAssay AID445 (National Center for Advancing Translational Sciences (NCATS), 2006)
# Some of the results follow. These are further read-outs of the screen, such as a control signal, another cell line or another target. No call is given for them. Most of these compounds were active or inconclusive in the main read-out, so they are no random draw. Potencies come from curve fits of mixed quality, noted in brackets.
# Assay: IkB Signaling
# Conditions: ABC-DLBCL IkBa-CBG/CBR dual luciferase ratio (green luciferase fused to IkBa over red control in OCI-Ly3 lymphoma cells), 4 h
# Summary of the method: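 Curves were fitted separately to fusion (green), unfused (red) and ratio luminescence, then classed by r2, magnitude and activity. Cells: OCI-Ly3, 4 h compound plus doxycycline at 37C; 10 uM MG-132 defined full response.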
# [1] = measured here: control luc red channel unless noted
smiles,measurement,setting,value
CC(=O)N1CCc2c(sc3c2c(=O)n(-c2cccc(Cl)c2)c(=O)n3Cc2ccc(F)cc2Cl)C1,AC50,[1],"39.8 µM [falling, single point]"
Cc1nn(C)c2c1c(C(F)(F)F)cc(=O)n2CC(=O)N1CCN(c2ccccc2F)CC1,AC50,[1],"25.1 µM [falling, partial curve]"
O=C(Cn1c(=O)n(-c2ccccc2)c(=O)c2c3c(sc21)CCCC3)Nc1ccccc1,AC50,[1],"0.0251 µM [rising, full curve, poor fit]"
CCOC(=O)c1c(NC(=O)/C=C/c2ccc(OCC)cc2)sc2c1CCCC2,AC50,[1],"3.98 µM [rising, partial curve]"
CCNc1sc(C(=O)c2cccs2)c(N)c1-c1nc2ccccc2s1,AC50,measured here: IkB-luc green channel,"7.94 µM [rising, full curve]"
same,AC50,measured here: control luc red channel,"6.31 µM [falling, partial curve]"
O=C(Oc1cccc2c(O)cccc12)c1ccccc1,AC50,[1],"20 nM [falling, full curve] [measured here: IkB-luc green channel]"
O=C(CCC1N=C2c3ccccc3N=C(SCc3ccccc3Cl)N2C1=O)N1CCN(c2ccccc2)CC1 (stereo unspecified),AC50,[1],"0.158 µM [rising, full curve]"
O=C1c2cccc3cccc(c23)N1CN1CCN(c2ccccn2)CC1,AC50,[1],"31.6 µM [falling, partial curve]"
Cc1ccc(C)c(NC(=O)CSc2ncc3c(n2)-c2cc(Cl)ccc2N(Cc2ccccc2F)S3(=O)=O)c1,AC50,[1],"1.26 µM [falling, full curve]"
CC1(C)CC(=O)c2cc(-c3nc(-c4ccc(Cl)cc4)cs3)c(=O)n(-c3ccc(F)cc3)c2C1,AC50,[1],"39.8 µM [falling, single point]"
COc1ccc(CN(Cc2ccco2)c2cnc(S(C)(=O)=O)nc2C(=O)Nc2ccc(C)c(C)c2)cc1,AC50,[1],"25.1 µM [falling, single point]"
Cc1cc(OCC(=O)Nc2cc(-c3nn4c(C)nnc4s3)ccc2C)ccc1Cl,AC50,[1],"7.94 µM [rising, single point] [measured here: IkB-luc green channel]"
COCc1[nH]nc2c1C(C1C=CCCC1)C(C#N)=C(N)O2 (stereo unspecified),AC50,[1],"10 µM [falling, partial curve]"
COc1ccc(-c2cc(C(F)(F)F)nc(NCCc3ccccc3)n2)cc1,AC50,[1],"20 µM [falling, single point]"
Cc1ccc(NC(=O)CSc2nc3ccc(NC(=O)c4ccco4)cc3s2)c(C)c1,AC50,[1],"25.1 µM [falling, partial curve]"
CC(C)(C)c1ccc(OCC(=O)NC(Cc2c[nH]c3ccccc23)C(=O)O)cc1 (stereo unspecified),AC50,[1],"20 µM [falling, single point]"
CC(=O)Nc1ccc(NS(=O)(=O)c2cc3c4c(c2)CC(=O)N4CCC3)cc1,AC50,[1],"12.6 µM [rising, partial curve]"
O=C(c1ccco1)N1CCN(C(=O)c2cc(-c3ccccn3)nc3ccccc23)CC1,AC50,[1],"12.6 µM [falling, partial curve, poor fit]"
COc1cc(C(=O)NCCS(=O)(=O)N2CCN(c3ccccc3)CC2)cc(OC)c1OC,AC50,[1],"3.16 µM [falling, full curve]"
COc1ccc(-c2cc3nc(C)c(CCC(=O)N4CCN(c5cc(C)ccc5C)CC4)c(C)n3n2)c(OC)c1,AC50,[1],"1 µM [falling, full curve]"
COc1ccc(N2CCN(S(=O)(=O)CCNC(=O)c3ccc(OC(C)C)cc3)CC2)cc1,AC50,[1],"1.58 µM [falling, partial curve]"
CN(C(=O)CSc1nc2ccc(NC(=O)COc3ccccc3Cl)cc2s1)c1ccccc1,AC50,[1],"15.8 µM [falling, partial curve]"
COc1cccc2sc(Nc3nc(C)c(C(C)=O)s3)nc12,AC50,[1],"3.98 µM [rising, partial curve] [measured here: IkB-luc green channel]"
COc1ccccc1N1CCN(C(=O)C2CCCN(S(=O)(=O)c3ccc4c(c3)oc(=O)n4C)C2)CC1 (stereo unspecified),AC50,[1],"10 µM [falling, partial curve]"
CCOC(=O)c1cccc(NC(=O)c2ccc3snnc3c2)c1,AC50,[1],"39.8 µM [falling, single point]"
CCc1ccc(-n2c(N3CCN(c4cccc(C)c4C)CC3)nc3ccccc3c2=O)cc1,AC50,[1],"15.8 µM [falling, single point]"
Cc1ccc(Nc2nc(N)nc(N)c2S(=O)(=O)c2ccccc2)cc1,AC50,[1],"20 µM [falling, single point]"
COC(=O)c1sccc1S(=O)(=O)N(CC(=O)NCc1ccccc1)c1ccc(C)cc1,AC50,[1],"20 µM [falling, single point]"
COc1ccccc1C(=O)Nc1nc(-c2ccc(Br)cc2)ns1,AC50,[1],"1 µM [falling, partial curve]"
Fc1cccc(-c2cc3nc4c(c(N5CCN(c6cnccn6)CC5)n3n2)CCCC4)c1,AC50,[1],"5.01 µM [falling, partial curve]"
Cc1cc(C(=O)COc2cccc(-n3cnnn3)c2)c(C)n1-c1ccccc1,AC50,[1],"12.6 µM [falling, partial curve]"
CCOC(=O)CN1C(C(=O)c2ccccc2)=C(OC(=O)c2ccccc2)c2ccccc2S1(=O)=O,AC50,[1],"15.8 µM [falling, partial curve]"
Cc1ccc(NC(=O)C2CCCN(S(=O)(=O)c3ccc(F)cc3)C2)cc1 (stereo unspecified),AC50,[1],"15.8 µM [falling, partial curve]"
CC(C(=O)NCc1ccc2c(c1)OCO2)N1c2cccc3cccc(c23)S1(=O)=O (stereo unspecified),AC50,[1],"12.6 µM [falling, partial curve]"
CC1=C(c2ccc(C)c(C)c2)S(=O)(=O)N=C1N1CCC(C(=O)NCc2ccc(Cl)cc2)CC1,AC50,[1],"20 µM [falling, partial curve]"
O=C(NCCC1=CCCCC1)c1ccc2c(c1)N(Cc1ccc(Cl)cc1)C(=O)c1ccccc1S2=O (stereo unspecified),AC50,[1],"10 µM [falling, partial curve]"
O=C(OCc1nc2ccccc2s1)C1CCN(C2=NS(=O)(=O)c3ccccc32)CC1,AC50,[1],"3.98 µM [falling, partial curve]"
CCOC(=O)c1cccc(NC(=O)c2cnc(N3CCCCC3)c3ccccc23)c1,AC50,[1],"25.1 µM [falling, partial curve]"
Cc1ccc(CNC(=O)CN2CCCN(Cc3ccc(F)cc3)S2(=O)=O)cc1,AC50,[1],"0.316 µM [falling, partial curve]"
COc1ccc(-c2noc(CCC(=O)N3CCN(c4cccc(C(F)(F)F)c4)CC3)n2)cc1,AC50,[1],"3.98 µM [falling, full curve, poor fit]"
O=C(COc1ccccc1F)Nc1ccc(Cl)c(-c2nc3ccccc3[nH]2)c1,AC50,[1],"15.8 µM [falling, partial curve]"
CCn1c(SC)nnc1-c1sc2cc(Cl)ccc2c1Cl,AC50,[1],"15.8 µM [falling, partial curve]"
Clc1cccc2sc(N3CCN(c4ccccc4)CC3)nc12,AC50,[1],"31.6 nM [rising, single point] [measured here: IkB-luc green channel]"
CCc1cccc(NC(=O)CC2Oc3ccc(C)cc3NC2=O)c1 (stereo unspecified),AC50,[1],"7.94 µM [rising, partial curve]"
O=C(NCCS(=O)(=O)N1CCN(c2cccc(Cl)c2)CC1)c1cc(=O)c2ccccc2o1,AC50,[1],"3.16 µM [falling, partial curve, poor fit]"
COc1ccccc1N(C(C)=O)C1SC(=O)N(c2ccccc2)C1=O (stereo unspecified),AC50,[1],"3.16 µM [falling, full curve]"
COc1cc(-c2nnn(CC(=O)NCc3ccccc3)n2)cc(OC)c1OC,AC50,[1],"39.8 µM [falling, single point]"
CCn1c(=S)sc2c(=O)n(-c3ccccc3)c(SCC(=O)NCc3ccco3)nc21,AC50,[1],"7.94 µM [falling, partial curve]"
Cc1cccc(N2CCN(c3ncnc4c3c(-c3ccccc3)cn4-c3ccccc3)CC2C)c1 (stereo unspecified),AC50,[1],"25.1 µM [falling, single point]"
CC(=O)N1c2c(cc(Br)cc2S(=O)(=O)NCC2COc3ccccc3O2)CC1C (stereo unspecified),AC50,[1],"15.8 µM [falling, partial curve]"
Cc1cccc(-c2nc(CS(=O)CC(=O)NCCCSC3CCCCC3)c(C)o2)c1 (stereo unspecified),AC50,[1],"15.8 µM [falling, partial curve]"
COc1cc(NC(=O)c2cc(-c3cccc(Cl)c3)on2)c(OC)cc1Cl,AC50,[1],"20 µM [falling, single point]"
Cc1ccc(N(CC(=O)N2CCN(c3cc(Cl)ccc3C)CC2)S(=O)(=O)c2c(C)noc2C)cc1,AC50,[1],"3.98 µM [falling, full curve]"
COc1ccc(NC(=O)c2sc3nc(C)c(C(=O)Nc4ccc(C)cc4C)c(-c4cccs4)c3c2N)cc1,AC50,[1],"3.98 µM [falling, full curve]"
COc1ccc(OC)c(NC(=O)c2sc3nc4c(cc3c2N)CCCCCC4)c1,AC50,[1],"25.1 µM [falling, partial curve]"
Cc1ccc(C)c(N2CCN(C(c3ccc(F)cc3)c3nnc(-c4ccccc4)o3)CC2)c1 (stereo unspecified),AC50,[1],"1.26 µM [falling, full curve]"
CN(C)CCNS(=O)(=O)c1ccc(Cl)cc1,AC50,[1],"15.8 µM [falling, partial curve]"
Cc1ccccc1CSc1cn(CC(=O)N2CCCC2)c2ccccc12,AC50,[1],"12.6 µM [falling, partial curve]"
CC(=O)c1ccc(N2CCN(C(=O)Cn3ncc4c3-c3ccccc3OC4)CC2)cc1,AC50,[1],"15.8 µM [falling, partial curve]"
COc1ccccc1/C=C/c1nc(C#N)c(NC(C)c2ccccc2)o1 (stereo unspecified),AC50,[1],"31.6 µM [falling, single point]"

# Two successive entries from above, quoted:
smiles,measurement,setting,value
COc1cc(C(=O)NCCS(=O)(=O)N2CCN(c3ccccc3)CC2)cc(OC)c1OC,AC50,[1],"3.16 µM [falling, full curve]"
COc1ccc(-c2cc3nc(C)c(CCC(=O)N4CCN(c5cc(C)ccc5C)CC4)c(C)n3n2)c(OC)c1,AC50,[1],"1 µM [falling, full curve]"

# A second format for part of the listing above.
smiles | measurement | setting | value
O=C1c2cccc3cccc(c23)N1CN1CCN(c2ccccn2)CC1 | AC50 | [1] | 31.6 µM [falling, partial curve]
Cc1ccc(C)c(NC(=O)CSc2ncc3c(n2)-c2cc(Cl)ccc2N(Cc2ccccc2F)S3(=O)=O)c1 | AC50 | [1] | 1.26 µM [falling, full curve]
